Measurements from article PMC3261171.

Chains of the proteins cited; added tags and fusions are not shown. Lines headed by an entry give the natural chain unless they say otherwise; changes in a name come on top.
UniProt Q14203: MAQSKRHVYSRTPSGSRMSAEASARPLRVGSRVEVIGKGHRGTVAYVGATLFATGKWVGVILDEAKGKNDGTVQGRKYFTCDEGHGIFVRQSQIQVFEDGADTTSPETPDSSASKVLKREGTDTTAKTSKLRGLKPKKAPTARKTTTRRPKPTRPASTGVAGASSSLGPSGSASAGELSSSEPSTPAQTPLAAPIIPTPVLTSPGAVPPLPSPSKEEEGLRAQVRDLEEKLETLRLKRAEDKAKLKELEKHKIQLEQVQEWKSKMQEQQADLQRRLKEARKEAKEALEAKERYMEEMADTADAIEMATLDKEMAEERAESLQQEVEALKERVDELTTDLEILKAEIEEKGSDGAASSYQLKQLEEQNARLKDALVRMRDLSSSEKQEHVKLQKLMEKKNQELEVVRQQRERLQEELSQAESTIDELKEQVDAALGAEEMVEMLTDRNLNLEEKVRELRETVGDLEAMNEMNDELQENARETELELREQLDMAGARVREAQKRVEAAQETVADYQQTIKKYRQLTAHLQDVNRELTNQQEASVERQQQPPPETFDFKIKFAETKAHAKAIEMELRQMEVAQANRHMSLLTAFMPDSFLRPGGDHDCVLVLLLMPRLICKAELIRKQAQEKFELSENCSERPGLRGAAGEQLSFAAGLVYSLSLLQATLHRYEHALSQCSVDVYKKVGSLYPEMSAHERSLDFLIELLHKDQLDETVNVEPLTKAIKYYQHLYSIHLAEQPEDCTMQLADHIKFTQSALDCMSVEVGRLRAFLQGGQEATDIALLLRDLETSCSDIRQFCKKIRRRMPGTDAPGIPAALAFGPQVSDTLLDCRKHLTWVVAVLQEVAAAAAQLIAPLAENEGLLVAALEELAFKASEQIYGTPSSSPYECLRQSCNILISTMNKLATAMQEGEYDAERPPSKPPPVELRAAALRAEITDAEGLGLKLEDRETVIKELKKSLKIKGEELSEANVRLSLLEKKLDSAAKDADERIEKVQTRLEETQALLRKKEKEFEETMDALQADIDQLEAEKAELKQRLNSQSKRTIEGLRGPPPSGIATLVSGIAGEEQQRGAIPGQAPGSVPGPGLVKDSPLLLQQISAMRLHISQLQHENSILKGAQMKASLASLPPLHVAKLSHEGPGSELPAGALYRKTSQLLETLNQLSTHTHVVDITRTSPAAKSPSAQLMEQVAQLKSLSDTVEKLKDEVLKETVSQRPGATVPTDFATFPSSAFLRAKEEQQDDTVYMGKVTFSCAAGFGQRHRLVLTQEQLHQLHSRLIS
UniProt Q15436: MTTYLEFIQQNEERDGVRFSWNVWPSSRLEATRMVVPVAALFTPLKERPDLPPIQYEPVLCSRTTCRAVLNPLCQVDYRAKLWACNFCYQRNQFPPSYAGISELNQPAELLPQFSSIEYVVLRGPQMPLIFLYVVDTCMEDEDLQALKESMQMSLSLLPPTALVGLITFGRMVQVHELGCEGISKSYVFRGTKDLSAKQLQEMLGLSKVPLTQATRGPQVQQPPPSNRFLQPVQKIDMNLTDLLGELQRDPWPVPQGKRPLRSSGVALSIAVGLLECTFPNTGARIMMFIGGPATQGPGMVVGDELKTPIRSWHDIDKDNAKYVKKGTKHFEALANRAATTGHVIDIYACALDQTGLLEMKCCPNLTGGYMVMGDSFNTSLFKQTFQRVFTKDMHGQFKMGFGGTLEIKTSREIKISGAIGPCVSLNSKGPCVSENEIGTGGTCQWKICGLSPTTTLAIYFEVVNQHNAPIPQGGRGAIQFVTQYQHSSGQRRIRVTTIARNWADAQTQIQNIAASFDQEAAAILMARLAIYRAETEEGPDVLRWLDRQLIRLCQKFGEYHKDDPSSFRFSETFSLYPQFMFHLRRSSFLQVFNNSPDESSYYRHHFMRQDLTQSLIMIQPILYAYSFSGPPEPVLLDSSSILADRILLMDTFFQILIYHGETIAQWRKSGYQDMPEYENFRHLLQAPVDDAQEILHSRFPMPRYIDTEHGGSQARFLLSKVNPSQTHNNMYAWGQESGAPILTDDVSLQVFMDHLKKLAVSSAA
UniProt P48553: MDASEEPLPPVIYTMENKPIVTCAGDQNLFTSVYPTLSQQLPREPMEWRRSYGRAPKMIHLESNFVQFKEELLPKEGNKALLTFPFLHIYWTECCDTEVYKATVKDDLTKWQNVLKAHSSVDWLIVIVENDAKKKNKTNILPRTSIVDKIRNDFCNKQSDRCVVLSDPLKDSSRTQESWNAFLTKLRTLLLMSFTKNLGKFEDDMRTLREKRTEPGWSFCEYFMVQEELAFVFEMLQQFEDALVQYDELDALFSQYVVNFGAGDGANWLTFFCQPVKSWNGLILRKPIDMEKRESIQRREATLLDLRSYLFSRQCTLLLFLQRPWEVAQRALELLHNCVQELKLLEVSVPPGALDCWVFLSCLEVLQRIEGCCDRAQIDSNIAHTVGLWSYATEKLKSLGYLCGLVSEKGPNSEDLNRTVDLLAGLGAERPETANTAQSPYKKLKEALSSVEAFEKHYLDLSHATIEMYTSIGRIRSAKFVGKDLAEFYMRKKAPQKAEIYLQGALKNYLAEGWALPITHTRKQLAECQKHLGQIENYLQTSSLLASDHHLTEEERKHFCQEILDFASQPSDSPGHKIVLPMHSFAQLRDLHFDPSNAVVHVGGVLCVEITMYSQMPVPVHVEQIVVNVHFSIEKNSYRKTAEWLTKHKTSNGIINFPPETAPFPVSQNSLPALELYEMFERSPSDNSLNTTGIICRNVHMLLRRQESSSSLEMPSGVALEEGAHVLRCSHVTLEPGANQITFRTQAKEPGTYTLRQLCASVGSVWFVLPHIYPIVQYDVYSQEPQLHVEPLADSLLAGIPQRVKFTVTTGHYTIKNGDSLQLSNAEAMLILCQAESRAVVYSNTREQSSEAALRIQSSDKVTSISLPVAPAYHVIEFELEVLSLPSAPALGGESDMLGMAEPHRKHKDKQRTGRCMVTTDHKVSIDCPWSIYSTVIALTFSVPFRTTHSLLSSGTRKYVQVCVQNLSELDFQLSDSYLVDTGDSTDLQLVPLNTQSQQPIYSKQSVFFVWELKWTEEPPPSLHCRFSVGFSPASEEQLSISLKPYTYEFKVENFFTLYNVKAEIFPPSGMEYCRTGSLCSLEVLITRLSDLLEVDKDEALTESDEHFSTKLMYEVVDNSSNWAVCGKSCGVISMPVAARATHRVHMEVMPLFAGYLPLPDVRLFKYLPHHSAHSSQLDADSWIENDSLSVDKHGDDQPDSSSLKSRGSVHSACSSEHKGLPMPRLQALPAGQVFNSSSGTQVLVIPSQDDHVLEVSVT
UniProt Q96Q05: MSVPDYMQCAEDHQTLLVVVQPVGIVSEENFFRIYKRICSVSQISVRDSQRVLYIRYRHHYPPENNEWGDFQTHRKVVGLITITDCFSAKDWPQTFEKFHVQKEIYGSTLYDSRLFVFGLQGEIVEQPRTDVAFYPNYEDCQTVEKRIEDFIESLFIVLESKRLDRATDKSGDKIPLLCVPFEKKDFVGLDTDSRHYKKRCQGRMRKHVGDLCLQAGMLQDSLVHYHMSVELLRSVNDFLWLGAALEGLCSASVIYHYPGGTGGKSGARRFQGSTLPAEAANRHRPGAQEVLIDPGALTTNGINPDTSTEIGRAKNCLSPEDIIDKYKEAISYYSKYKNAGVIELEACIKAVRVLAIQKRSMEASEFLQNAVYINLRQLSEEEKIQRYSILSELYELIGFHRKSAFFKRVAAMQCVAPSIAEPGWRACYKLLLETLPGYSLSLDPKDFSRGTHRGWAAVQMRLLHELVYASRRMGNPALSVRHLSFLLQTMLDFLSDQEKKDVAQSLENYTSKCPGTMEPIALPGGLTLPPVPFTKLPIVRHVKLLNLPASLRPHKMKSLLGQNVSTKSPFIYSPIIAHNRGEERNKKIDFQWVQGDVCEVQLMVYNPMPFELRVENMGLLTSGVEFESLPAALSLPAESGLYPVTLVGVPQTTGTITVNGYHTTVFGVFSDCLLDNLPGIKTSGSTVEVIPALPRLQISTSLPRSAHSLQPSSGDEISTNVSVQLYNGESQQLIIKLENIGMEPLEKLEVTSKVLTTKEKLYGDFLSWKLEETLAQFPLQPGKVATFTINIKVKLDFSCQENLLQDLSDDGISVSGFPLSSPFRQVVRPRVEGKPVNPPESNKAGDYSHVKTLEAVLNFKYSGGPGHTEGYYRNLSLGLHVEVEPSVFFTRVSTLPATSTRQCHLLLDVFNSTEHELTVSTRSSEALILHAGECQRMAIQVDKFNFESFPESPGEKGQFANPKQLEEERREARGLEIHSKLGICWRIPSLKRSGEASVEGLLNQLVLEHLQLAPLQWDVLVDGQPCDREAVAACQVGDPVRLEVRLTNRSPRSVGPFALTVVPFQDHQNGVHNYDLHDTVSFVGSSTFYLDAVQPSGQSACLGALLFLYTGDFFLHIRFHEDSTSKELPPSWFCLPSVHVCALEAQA

Experiments:
Assay in all cases: co-IP; co-transfected COS1 cells; lysis buffer 20 mM Tris pH 8.0, 100 mM NaCl, 0.1% NP-40; anti-Myc antibody and protein-A sepharose, at least 3 h at 4°C; co-precipitated FLAG-tagged protein detected by anti-FLAG blot
[1] = target: FLAG-tagged CT^Glued (carboxyl terminus of p150^Glued, amino acid 938-1254) (human) (UniProt Q14203)
Myc-Sec23A = Myc-Sec23A (UniProt Q15436)
Myc-tagged TRAPPC10 = Myc-tagged TRAPPC10 (UniProt P48553)
Myc-tagged TRAPPC9 = Myc-tagged TRAPPC9 (UniProt Q96Q05)
Myc-Sec24D = target: T1, Myc-Sec24D (UniProt O94855)
T1 sequence: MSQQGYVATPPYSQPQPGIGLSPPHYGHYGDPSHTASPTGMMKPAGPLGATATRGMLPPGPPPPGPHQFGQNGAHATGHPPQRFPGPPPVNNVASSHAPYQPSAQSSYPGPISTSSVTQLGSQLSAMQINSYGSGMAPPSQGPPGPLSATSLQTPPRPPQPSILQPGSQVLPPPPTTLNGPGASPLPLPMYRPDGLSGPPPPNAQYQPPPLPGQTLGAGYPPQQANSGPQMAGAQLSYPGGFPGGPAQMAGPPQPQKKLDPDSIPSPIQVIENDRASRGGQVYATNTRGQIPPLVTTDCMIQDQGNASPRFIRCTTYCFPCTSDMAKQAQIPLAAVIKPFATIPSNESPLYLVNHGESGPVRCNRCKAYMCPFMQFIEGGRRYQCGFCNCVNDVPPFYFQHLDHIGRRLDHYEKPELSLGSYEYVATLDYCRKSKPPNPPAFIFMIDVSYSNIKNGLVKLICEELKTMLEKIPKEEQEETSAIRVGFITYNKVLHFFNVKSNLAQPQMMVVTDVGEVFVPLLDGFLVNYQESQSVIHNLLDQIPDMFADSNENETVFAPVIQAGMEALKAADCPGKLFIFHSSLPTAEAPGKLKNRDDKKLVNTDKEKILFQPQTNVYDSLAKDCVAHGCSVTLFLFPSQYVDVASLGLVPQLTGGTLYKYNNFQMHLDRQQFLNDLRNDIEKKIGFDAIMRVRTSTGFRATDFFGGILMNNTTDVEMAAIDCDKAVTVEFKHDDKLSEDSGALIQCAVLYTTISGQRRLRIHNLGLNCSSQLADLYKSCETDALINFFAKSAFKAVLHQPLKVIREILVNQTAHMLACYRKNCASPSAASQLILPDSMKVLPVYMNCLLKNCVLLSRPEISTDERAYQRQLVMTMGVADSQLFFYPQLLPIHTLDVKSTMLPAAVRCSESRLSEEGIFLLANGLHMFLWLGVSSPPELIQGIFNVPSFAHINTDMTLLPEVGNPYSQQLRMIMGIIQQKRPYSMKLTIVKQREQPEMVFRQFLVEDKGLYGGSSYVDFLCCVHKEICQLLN

Substance | binding [1] | binding (Myc-Sec23A) | binding (Myc-tagged TRAPPC10) | binding (Myc-tagged TRAPPC9) | binding (Myc-Sec24D)
GFP-TRAPPC9 (from UniProt Q96Q05 1-1148) | binds | – | – | – | –
FLAG-tagged CT^Glued (carboxyl terminus of p150^Glued, amino acid 938-1254) (from UniProt Q14203-1) (domain or fragment) | – | binds | binds weakly | binds | binds

These are yes or no findings as the source states them, for the method shown. In cells and extracts the contact can be indirect. A result given as binding can be weak or reduced; the word gives no strength. For some assays here: Where a sequence is shown, tags or fusion partners need not be part of it.
